Source: patent US20230277598A1, “TREATMENT OF TRAUMA ASSOCIATED COGNITIVE DYSFUNCTION USING MESENCHYMAL STEM CELL APOPTOTIC BODIES AND COMPOSITIONS THEREOF” (Therapeutic Solutions International, Inc., priority 2022, published 2023)
For at least one compound, name, drawing or mass did not settle the structure.

Tested on: microglial activation
Experiment: in vivo models of post-operative cognitive dysfunction (POCD), post-operative memory loss
Conditions: ablation of microglial activation with minocycline; in vivo models used

**Q.** Which post-operative memory loss does the source give for `CN(C)c1ccc(O)c2c1C[C@H]1C[C@H]3[C@H](N(C)C)C(O)=C(C(N)=O)C(=O)[C@@]3(O)C(O)=C1C2=O` [minocycline] here?
**A.** prevent post-operative memory loss
